# Laboratory results as given in patent US5804554A, “Calcium channel blocking polypeptides from filistata hibernalis” (priority 1995, dated 1998).
# Tested on: calcium channels
# Conditions: read-out: IC50 values for blocking calcium channels; rat cerebellar granule cells, fura2 fluorescence, 37° C.
structure (smiles),measurement,value
COC(=O)C1=C(C)NC(C)=C(C(=O)OC)C1c1ccccc1[N+](=O)[O-] [Nifedipine],IC50,33 nM
